Measured values reported in article PMC11532242.
No constants are given. Whether binding was seen depends on the method and setting. Binding seen in cells or lysates may run through a third protein. Some results given as binding are weak or reduced against the parent protein; the word gives no strength.

Biological target: T1, FOXM1 (human (endogenous in U-2OS and 143B)) (UniProt Q08050)
T1 sequence: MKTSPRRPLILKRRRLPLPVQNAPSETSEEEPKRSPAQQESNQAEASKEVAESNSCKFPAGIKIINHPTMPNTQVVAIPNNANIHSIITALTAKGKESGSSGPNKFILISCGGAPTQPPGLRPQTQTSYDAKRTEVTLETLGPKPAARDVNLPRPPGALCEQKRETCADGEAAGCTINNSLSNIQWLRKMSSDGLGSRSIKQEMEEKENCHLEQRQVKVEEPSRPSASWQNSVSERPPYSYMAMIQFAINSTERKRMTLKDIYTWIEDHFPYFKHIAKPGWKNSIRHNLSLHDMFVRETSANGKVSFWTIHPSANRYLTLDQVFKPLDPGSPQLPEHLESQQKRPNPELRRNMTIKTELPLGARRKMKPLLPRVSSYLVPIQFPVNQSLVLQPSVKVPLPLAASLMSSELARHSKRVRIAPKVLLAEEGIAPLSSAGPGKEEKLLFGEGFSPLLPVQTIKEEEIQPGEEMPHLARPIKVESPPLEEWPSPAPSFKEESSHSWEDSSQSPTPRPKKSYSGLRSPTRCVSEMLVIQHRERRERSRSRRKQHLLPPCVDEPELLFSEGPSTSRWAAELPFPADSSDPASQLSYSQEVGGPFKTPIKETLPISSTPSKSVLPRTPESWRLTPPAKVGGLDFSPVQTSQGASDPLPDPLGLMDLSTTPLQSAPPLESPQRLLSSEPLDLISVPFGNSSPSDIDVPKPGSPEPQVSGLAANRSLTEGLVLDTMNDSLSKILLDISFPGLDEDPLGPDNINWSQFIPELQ
Experiment: co-IP; total protein from U-2OS and 143B cells in RIPA lysis buffer (Strong); precipitated with anti-FOXM1 antibody and Protein A/G magnetic beads; western blot; IgG as negative control

B1: hyaluronan-mediated motility receptor (HMMR) (protein, UniProt O75330 1-724)
chain: MSFPKAPLKRFNDPSGCAPSPGAYDVKTLEVLKGPVSFQKSQRFKQQKESKQNLNVDKDTTLPASARKVKSSESKESQKNDKDLKILEKEIRVLLQERGAQDRRIQDLETELEKMEARLNAALREKTSLSANNATLEKQLIELTRTNELLKSKFSENGNQKNLRILSLELMKLRNKRETKMRGMMAKQEGMEMKLQVTQRSLEESQGKIAQLEGKLVSIEKEKIDEKSETEKLLEYIEEISCASDQVEKYKLDIAQLEENLKEKNDEILSLKQSLEENIVILSKQVEDLNVKCQLLEKEKEDHVNRNREHNENLNAEMQNLKQKFILEQQEREKLQQKELQIDSLLQQEKELSSSLHQKLCSFQEEMVKEKNLFEEELKQTLDELDKLQQKEEQAERLVKQLEEEAKSRAEELKLLEEKLKGKEAELEKSSAAHTQATLLLQEKYDSMVQSLEDVTAQFESYKALTASEIEDLKLENSSLQEKAAKAGKNAEDVQHQILATESSNQEYVRMLLDLQTKSALKETEIKEITVSFLQKITDLQNQLKQQEEDFRKQLEDEEGRKAEKENTTAELTEEINKWRLLYEELYNKTKPFQLQLDAFEVEKQALLNEHGAAQEQLNKIRDSYAKLLGHQNLKQKIKHVVKLKDENSQLKSEVSKLRCQLAKKKQSETKLQEELNKVLGIKHFDPSKAFHHESKENFALKTPLKEGNTNCYRAPMECQESWK
  binding: binds
